# Values of other authors in patent US20140330170A1, “Method of Quantifying Cancer Treatment” (Exelixis, Inc., priority 2012, published 2014).
# At least one compound was matched to its structure with a doubt left.
# Tested on: CRPC patients
# Conditions: cited from earlier work
row,Compound,observations of decreased uptake on bone scan
1,C[C@]12CC[C@H](O)CC1=CC[C@@H]1[C@@H]2CC[C@]2(C)C(c3cccnc3)=CC[C@@H]12 [abiraterone],only been reported rarely
2,Cc1nc(Nc2ncc(C(=O)Nc3c(C)cccc3Cl)s2)cc(N2CCN(CCO)CC2)n1 [dasatinib],only been reported rarely
